In paper PMC7819943, “Rice protein-binding microarrays: a tool to detect cis-acting elements near promoter regions in rice”:
This is one part of the list.

The chains behind the UniProt entries cited, without tags or fusion partners.
UniProt Q0JBA9, entry or part of it: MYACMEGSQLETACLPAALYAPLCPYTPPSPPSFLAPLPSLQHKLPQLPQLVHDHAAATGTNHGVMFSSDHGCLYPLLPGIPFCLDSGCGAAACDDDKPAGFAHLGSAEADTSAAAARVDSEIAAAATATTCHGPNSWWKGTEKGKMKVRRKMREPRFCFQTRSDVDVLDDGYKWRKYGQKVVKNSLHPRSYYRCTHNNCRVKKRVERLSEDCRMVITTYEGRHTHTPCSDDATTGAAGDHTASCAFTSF

These sequences were tested against OsWRKY34 (Oryza sativa, UniProt Q0JBA9 1-250) (assay: protein-binding microarray (RPBM); PBS, 2% BSA, 51.3 ng/ul salmon testes DNA, 50 uM zinc acetate, 200 nM TF, 25 C, 1 h; high values mean tight binding). Conditions: protein: recombinant; tags: N-terminal polyhistidine and DsRed monomer fusion (pET32a); label: CyDye5-dUTP incorporated in the synthesized complementary strand; 3' TTTTT single-stranded linker to array surface; dsDNA, one strand shown.
How it was run: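 The binding signal is fluorescence intensity per feature, in arbitrary units, read on an Axon 4000B scanner. Polyhistidine- and DsRed-tagged transcription factors (N-terminal fusions) from E. coli BL21-CodonPlus were purified on Ni–NTA and applied at 200 nM for 1 h at 25 °C to a double-stranded, BSA-blocked custom Agilent array in buffer with 50 µM zinc acetate.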

Sequence | binding signal
CACCCACGAGACCACCACGTGCTTGACCACATGGGCCCACCGGAGTCACCTAGTGCAG | 8370 fluorescence intensity (a.u.)
AAAAAGTCAACGGTGTCAAATATTTTGAAACGGAGGAAGTCGGAGTCACCTAGTGCAG | 8560 fluorescence intensity (a.u.)
TGCAACGAACCTGCACTGCATTGTCCCTTTCATCATCACGCGGAGTCACCTAGTGCAG | 8370 fluorescence intensity (a.u.)
CTCTCCTCTCCTCTCCTCGCGACAGCGCCGCCCCAAAAACCGGAGTCACCTAGTGCAG | 8280 fluorescence intensity (a.u.)
TTGGATGCTCCGTTTCTCCTCCCTGCAGCGCCATGCGCACCGGAGTCACCTAGTGCAG | 8150 fluorescence intensity (a.u.)
TGAAATCGAACTGCCTGGTTGGTGGAAATGGTTGACCAAGCGGAGTCACCTAGTGCAG | 8290 fluorescence intensity (a.u.)
CGGCCCGCAAATTCTAGTCTTGTTATGGGCCGTCACAGATCGGAGTCACCTAGTGCAG | 8050 fluorescence intensity (a.u.)
TCTCAGCGGCCCGAACCTGTATACATCGCCGGCGTCTTGTCGGAGTCACCTAGTGCAG | 9160 fluorescence intensity (a.u.)
TAAAATTCATCGGACTCCATATGTGCAGGTGGTGGTGGGGCGGAGTCACCTAGTGCAG | 10400 fluorescence intensity (a.u.)
TCTGGACCGTCCATCCGCGCGCTTCTCTTCCTCCACCGCACGGAGTCACCTAGTGCAG | 10100 fluorescence intensity (a.u.)
TATCTCTCTCCCGCTGACAACCCGGTCACACCGAACCAACCGGAGTCACCTAGTGCAG | 8990 fluorescence intensity (a.u.)
AAATGGGTTTATGGGTTGACCCACTTACATCATCTCTAGACGGAGTCACCTAGTGCAG | 8660 fluorescence intensity (a.u.)
TCTCCCTCACTCGCTTTTGACTCGAACCAGTCCGCTCTCTCGGAGTCACCTAGTGCAG | 10800 fluorescence intensity (a.u.)
ACACCTTCATCCGTCCATCATCTCTGCGCCGCCGCCACCGCGGAGTCACCTAGTGCAG | 8700 fluorescence intensity (a.u.)
TGTGTTTGTGTTGTGTGTGTGAGAGAGAGAGGCGAAGAAACGGAGTCACCTAGTGCAG | 9540 fluorescence intensity (a.u.)
GCTTCTACTCCTTTTCAACCTGTCTTTGTCTCCCTCCGCCCGGAGTCACCTAGTGCAG | 8750 fluorescence intensity (a.u.)
CAATTCTCCAACTTCCACGTGGGCCCCAGAACAAAAATCCCGGAGTCACCTAGTGCAG | 8830 fluorescence intensity (a.u.)
TTACACCCTTATTTTTTACGCGCACGCTTCCCGAACCGTACGGAGTCACCTAGTGCAG | 8280 fluorescence intensity (a.u.)
GGTGTAGGTGGGTATAATAAATGTATGAATTACTTCGAATCGGAGTCACCTAGTGCAG | 11600 fluorescence intensity (a.u.)
AGAGATGGTTTGCTGTTAATTTTGCAATGTGGATGGCTGTCGGAGTCACCTAGTGCAG | 8210 fluorescence intensity (a.u.)
AATTTTGTATATTCGTTTGCACGTTTTTAAAACTCCTAAACGGAGTCACCTAGTGCAG | 65500 fluorescence intensity (a.u.)

A second format for some results above.
Sequence	binding signal
CGGCCCGCAAATTCTAGTCTTGTTATGGGCCGTCACAGATCGGAGTCACCTAGTGCAG	8050 fluorescence intensity (a.u.)
AAATGGGTTTATGGGTTGACCCACTTACATCATCTCTAGACGGAGTCACCTAGTGCAG	8660 fluorescence intensity (a.u.)

The listing continues:

Sequence | binding signal
TTCTTCCCTTTCCATTTCTCCCTTTTCCTACCTCGCCTCGCGGAGTCACCTAGTGCAG | 8260 fluorescence intensity (a.u.)
CACCTTGACTCAGCGTGGTTGACTCTAGTCAACTTGTCACCGGAGTCACCTAGTGCAG | 10400 fluorescence intensity (a.u.)
GGTTTTGACAATTGAGGGACACGTTCTATCTGGTTTTCCGCGGAGTCACCTAGTGCAG | 8290 fluorescence intensity (a.u.)
AGGTTTCTTTTGGGCATAGTTCTTGCTTTTACCTTTTTTTCGGAGTCACCTAGTGCAG | 14100 fluorescence intensity (a.u.)
TCTACTCCCTCCGTTGCAGGTTATAAGATGTTTTGACTTTCGGAGTCACCTAGTGCAG | 9240 fluorescence intensity (a.u.)
CAGGAGTACTATCTTTTATACCGGTCAACGCACAGCTTACCGGAGTCACCTAGTGCAG | 9170 fluorescence intensity (a.u.)
GCCATCAAACTTGACGCAACAGCCCATCGTCTGATCCATCCGGAGTCACCTAGTGCAG | 10000 fluorescence intensity (a.u.)
ATGATGAGTATATAATTTTTTATTGCATGATTACTGTTCTCGGAGTCACCTAGTGCAG | 9150 fluorescence intensity (a.u.)
CGCACACGCACACACGCACTCGCACTACTCGAACCACGCGCGGAGTCACCTAGTGCAG | 8950 fluorescence intensity (a.u.)
TATGTTTGTTGCACTTTGATTATTTGGGTGTTTCATTATCCGGAGTCACCTAGTGCAG | 10300 fluorescence intensity (a.u.)
TTTCTAATAATGTGCTGACTCTTGCTATTGGATTAACTATCGGAGTCACCTAGTGCAG | 9690 fluorescence intensity (a.u.)
CCAATCACAACATTCTTCCATTTAATTCTACCAACATTTTCGGAGTCACCTAGTGCAG | 8040 fluorescence intensity (a.u.)
TGATCCATCCCAGTCCCAGTACCCCACACGCAACTGGCTCCGGAGTCACCTAGTGCAG | 8720 fluorescence intensity (a.u.)
TACTTTTGCTGGTTTTATCAATCCAAACCATGAATGCTGCCGGAGTCACCTAGTGCAG | 8050 fluorescence intensity (a.u.)
GTCGATGCGTGTTTCCTGTTCGTTTGGGTGGCCTGATGCCCGGAGTCACCTAGTGCAG | 8840 fluorescence intensity (a.u.)
ATCGCCACACTTATAACATGCCATATTTTCTTTTAACTTACGGAGTCACCTAGTGCAG | 9690 fluorescence intensity (a.u.)
TTCTTTCTGTGCATTCCAGGTCGGATTTCGGGCACTTCGCCGGAGTCACCTAGTGCAG | 9120 fluorescence intensity (a.u.)
CCTCTCTAGATCTTTTCCCTCTAAACAATTCAGAATTTTCCGGAGTCACCTAGTGCAG | 8850 fluorescence intensity (a.u.)
CACCGTTGCCCGCCTACCACTACTACCACTGATCACACTTCGGAGTCACCTAGTGCAG | 14300 fluorescence intensity (a.u.)
TATTTAATTACCTCACGCACATTCTTTTCTCAGCAAATCACGGAGTCACCTAGTGCAG | 8290 fluorescence intensity (a.u.)
CTACACACAGCTTAGTCCTGCTACCTCGCCGGCGCAAACGCGGAGTCACCTAGTGCAG | 9340 fluorescence intensity (a.u.)

Quoted from the entries so far (2 entries):
Sequence | binding signal
TATTTAATTACCTCACGCACATTCTTTTCTCAGCAAATCACGGAGTCACCTAGTGCAG | 8290 fluorescence intensity (a.u.)
CTACACACAGCTTAGTCCTGCTACCTCGCCGGCGCAAACGCGGAGTCACCTAGTGCAG | 9340 fluorescence intensity (a.u.)
